Measured values as given in article PMC5506012.
Like-named read-outs stand apart in the source and are kept apart here. Results are given in words; binding and its absence hold for the method and conditions named. In cells and extracts the contact can be indirect. Some binding calls cover weakened binding; strength is not graded here.

The chains behind the UniProt entries cited, without tags or fusion partners. Residues count along the entry.
UniProt P84903, residues 23-685: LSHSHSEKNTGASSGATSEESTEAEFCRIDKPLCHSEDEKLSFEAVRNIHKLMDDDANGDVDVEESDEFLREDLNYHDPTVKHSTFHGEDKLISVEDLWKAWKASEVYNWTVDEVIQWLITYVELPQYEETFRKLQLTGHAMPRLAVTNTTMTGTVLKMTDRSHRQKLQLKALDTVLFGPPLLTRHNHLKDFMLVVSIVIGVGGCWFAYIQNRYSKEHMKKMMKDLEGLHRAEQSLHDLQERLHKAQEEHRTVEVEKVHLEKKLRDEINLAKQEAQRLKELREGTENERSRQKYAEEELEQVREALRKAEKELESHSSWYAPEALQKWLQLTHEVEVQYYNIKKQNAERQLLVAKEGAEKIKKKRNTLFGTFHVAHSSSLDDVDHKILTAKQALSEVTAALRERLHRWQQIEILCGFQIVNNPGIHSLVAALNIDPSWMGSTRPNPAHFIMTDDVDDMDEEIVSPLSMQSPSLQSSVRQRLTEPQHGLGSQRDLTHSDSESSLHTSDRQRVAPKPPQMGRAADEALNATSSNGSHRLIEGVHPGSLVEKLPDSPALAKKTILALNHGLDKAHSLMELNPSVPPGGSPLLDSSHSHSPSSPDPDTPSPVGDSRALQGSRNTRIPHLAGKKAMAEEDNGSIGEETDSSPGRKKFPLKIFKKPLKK
UniProt Q5M848: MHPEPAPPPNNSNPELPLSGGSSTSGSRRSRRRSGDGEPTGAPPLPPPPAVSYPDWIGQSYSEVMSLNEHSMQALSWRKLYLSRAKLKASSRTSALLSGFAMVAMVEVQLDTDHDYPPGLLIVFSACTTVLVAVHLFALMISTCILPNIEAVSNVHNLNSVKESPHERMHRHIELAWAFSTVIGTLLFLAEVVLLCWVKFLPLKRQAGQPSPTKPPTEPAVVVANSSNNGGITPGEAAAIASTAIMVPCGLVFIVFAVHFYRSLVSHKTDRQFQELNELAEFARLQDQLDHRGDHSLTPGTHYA
UniProt O35119: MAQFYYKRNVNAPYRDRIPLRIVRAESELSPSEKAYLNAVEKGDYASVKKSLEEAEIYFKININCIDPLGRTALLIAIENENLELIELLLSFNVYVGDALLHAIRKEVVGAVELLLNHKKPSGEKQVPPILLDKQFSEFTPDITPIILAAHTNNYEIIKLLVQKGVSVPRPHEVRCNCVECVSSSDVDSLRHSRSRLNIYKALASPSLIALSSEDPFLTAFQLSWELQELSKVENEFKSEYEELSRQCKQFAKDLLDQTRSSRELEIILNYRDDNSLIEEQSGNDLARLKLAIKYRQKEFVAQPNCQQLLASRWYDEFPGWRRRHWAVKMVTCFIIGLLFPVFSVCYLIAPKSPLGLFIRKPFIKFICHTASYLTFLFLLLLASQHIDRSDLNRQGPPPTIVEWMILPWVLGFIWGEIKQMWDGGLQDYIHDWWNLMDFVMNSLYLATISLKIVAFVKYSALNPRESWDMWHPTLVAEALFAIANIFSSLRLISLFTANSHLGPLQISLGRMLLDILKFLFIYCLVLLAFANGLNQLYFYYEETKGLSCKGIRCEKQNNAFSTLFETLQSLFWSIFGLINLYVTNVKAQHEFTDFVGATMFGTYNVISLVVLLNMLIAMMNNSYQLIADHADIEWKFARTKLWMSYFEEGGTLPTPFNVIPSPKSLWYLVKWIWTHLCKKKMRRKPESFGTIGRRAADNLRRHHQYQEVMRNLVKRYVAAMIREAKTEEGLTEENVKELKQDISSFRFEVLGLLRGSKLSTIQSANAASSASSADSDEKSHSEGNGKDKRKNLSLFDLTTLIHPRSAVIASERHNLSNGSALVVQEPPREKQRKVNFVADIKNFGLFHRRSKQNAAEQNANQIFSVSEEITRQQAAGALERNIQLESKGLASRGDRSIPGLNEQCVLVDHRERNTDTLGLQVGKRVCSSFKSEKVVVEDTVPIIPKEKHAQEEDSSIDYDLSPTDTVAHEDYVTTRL
UniProt Q9QX01: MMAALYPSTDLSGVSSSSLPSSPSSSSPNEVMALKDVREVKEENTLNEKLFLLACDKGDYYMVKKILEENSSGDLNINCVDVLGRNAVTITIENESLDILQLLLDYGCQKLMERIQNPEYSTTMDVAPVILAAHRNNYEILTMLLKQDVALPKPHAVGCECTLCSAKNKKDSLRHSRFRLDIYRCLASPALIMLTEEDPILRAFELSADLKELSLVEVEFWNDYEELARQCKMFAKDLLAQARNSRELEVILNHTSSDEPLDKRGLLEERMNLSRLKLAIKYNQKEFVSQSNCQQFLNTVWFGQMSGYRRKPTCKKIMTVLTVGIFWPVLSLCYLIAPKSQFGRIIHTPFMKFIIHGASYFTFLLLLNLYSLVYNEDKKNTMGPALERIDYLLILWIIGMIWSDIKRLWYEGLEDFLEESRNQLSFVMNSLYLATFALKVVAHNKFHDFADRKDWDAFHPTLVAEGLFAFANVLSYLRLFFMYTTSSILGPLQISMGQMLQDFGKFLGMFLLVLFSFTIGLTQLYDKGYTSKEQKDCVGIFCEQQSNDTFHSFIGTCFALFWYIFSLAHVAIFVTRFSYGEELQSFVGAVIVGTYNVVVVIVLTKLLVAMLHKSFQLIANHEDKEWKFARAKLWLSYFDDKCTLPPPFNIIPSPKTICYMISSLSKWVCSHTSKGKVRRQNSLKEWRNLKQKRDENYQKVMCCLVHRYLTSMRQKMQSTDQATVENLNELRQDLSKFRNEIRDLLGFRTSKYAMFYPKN

Assays:
[1] = biological target: T1, Homer1 (rat (endogenous in rat carotid artery)) (UniProt Q9Z214); assay: co-IP; anti-Homer1 antibody (1 ug) added to 100 ul extract of media + neointima of balloon-injured (14 days) and uninjured rat carotid arteries, RIPA buffer, 2 h at 4 °C; protein A Sepharose 4B or Protein G Plus Agarose beads; Western blot of the partners
T1 sequence: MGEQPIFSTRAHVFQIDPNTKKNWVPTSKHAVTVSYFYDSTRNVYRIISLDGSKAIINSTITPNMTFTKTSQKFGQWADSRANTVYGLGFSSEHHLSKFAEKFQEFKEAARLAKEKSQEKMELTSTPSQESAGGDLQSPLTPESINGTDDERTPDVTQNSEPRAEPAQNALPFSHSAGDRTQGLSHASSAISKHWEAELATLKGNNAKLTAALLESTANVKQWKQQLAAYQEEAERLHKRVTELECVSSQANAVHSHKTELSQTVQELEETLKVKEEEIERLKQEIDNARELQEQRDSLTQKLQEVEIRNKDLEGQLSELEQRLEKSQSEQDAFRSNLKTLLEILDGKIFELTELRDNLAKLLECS

[2] = biological target: STIM1 (rat (endogenous in rat carotid artery)) (UniProt P84903); assay: co-IP; anti-STIM1 antibody (1 ug) added to 100 ul extract of media + neointima of balloon-injured (14 days) and uninjured rat carotid arteries, RIPA buffer, 2 h at 4 °C; protein A Sepharose 4B or Protein G Plus Agarose beads; Western blot of the partners
[3] = biological target: STIM1 (rat (endogenous in rat carotid artery)) (UniProt P84903); assay: as above; remark: listed apart in the source

Orai1 (from UniProt Q5M848 1-304)
binding [1]: binds
binding [2]: binds

TRPC4 (from UniProt O35119 1-977)
binding [1]: binds
binding [2]: binds

TRPC1 (from UniProt Q9QX01 1-759)
binding [1]: binds
binding [2]: binds

B1: TRPC6 (protein, UniProt Q99N78 1-930)
chain: MSQSPGFVTRRGGSPKAAPGAGARRNESQDYLLMDELGDDGYPQLQQPPYGYYPSFRGNENRLTHRRQTVLREKGRRLANRGPAYMFNDHSTSLSIEEERFLDAAEYGNIPVVRKMLEECLSLNVNCVDYMGQNALQLAVANEHLEITELLLKKENLSRVGDALLLAISKGYVRIVEAILNHPAFAEGKRLATSPSQSELQQDDFYAYDEDGTRFSHDVTPIILAAHCQEYEIVHTLLRKGARIERPHDYFCKCTECSQKQKHDSFSHSRSRINAYKGLASPAYLSLSSEDPVMTALELSNELAVLANIEKEFKNDYRKLSMQCKDFVVGLLDLCRNTEEVEAILNGDAETRQPGDLARPNLSRLKLAIKYEVKKFVAHPNCQQQLLSIWYENLSGLRQQTMAVKFLVVLAVAIGLPFLALIYWCAPCSKMGKILRGPFMKFVAHAASFTIFLGLLVMNAADRFEGTKLLPNETSTDNARQLFRMKTSCFSWMEMLIISWVIGMIWAECKEIWTQGPKEYLFELWNMLDFGMLAIFAASFIARFMAFWHASKAQSIIDANDTLKDLTKVTLGDNVKYYNLARIKWDPTDPQIISEGLYAIAVVLSFSRIAYILPANESFGPLQISLGRTVKDIFKFMVIFIMVFVAFMIGMFNLYSYYIGAKQNEAFTTVEESFKTLFWAIFGLSEVKSVVINYNHKFIENIGYVLYGVYNVTMVIVLLNMLIAMINSSFQEIEDDADVEWKFARAKLWFSYFEEGRTLPVPFNLVPSPKSLLYLLLKFKKWMSELIQGHKKGFQEDAEMNKRNEEKKFGILGSHEDLSKFSLDRNQLAHNKQSSTRSSEDFHLNSFSNPPRQYQKIMKRLIKRYVLQAQIDKESDEVNEGELKEIKQDISSLRYELLEEKSQNTEDLAELIRKLGERLSLESKQEESRR
binding [1]: binds
binding [3]: binds

B2: TRPC3 (protein, UniProt Q9JMI9 1-909)
chain: MSTKVKKCREPARVTLPAPEEEDGEAEGAEPQRRRRGWRGVNGGLEPPCPRAPPSPGPDASSEGSPSRWRTAGMRDKGRRQAVRGPAFMFGARGPSLTAEEERFLDAAEYGNIPVVRKMLEESRTLNVNCVDYMGQNALQLAVGNEHLEVTELLLKKENLARIGDALLLAISKGYVRIVEAILGHPGFAASRRLTLSPCEQELRDDDFYAYDEDGTRFSPDITPIILAAHCHKYEVVHLLLLKGARIERPHDYFCRCADCAEKQRLDAFSHSRSRINAYKGLASPAYLSLSSEDPVLTALELSNELAKLANIEKEFKNDYRKLSMQCKDFVVGVLDLCRDSEEVEAILNGDLESVEPLERHGHKASLSRVKLAIKYEVKKFVAHPNCQQQLLTIWYENLSGLREQTIAIKCLVVLVVALGLPFLAIGYWIAPCSRLGKILRSPFMKFVAHAASFIIFLGLLVFNASDRFEGITTLPNITVIDYPKQIFRVKTTQFTWTEMLIMVWVLGMMWSECKELWLEGPREYIVQLWNVLDFGMLSIFIAAFTARFLAFLQATKAQQYVDSHVQESDLSEVTLPPEVQYFTYARDKWLPSDPQIISEGLYAIAVVLSFSRIAYILPANESFGPLQISLGRTVKDIFKFMVLFIMVFLAFMIGMFILYSYYLGAKVNPAFTTVEESFKTLFWSIFGLSEVTSVVLKYDHKFIENIGYVLYGIYNVTMVVVLLNMLIAMINSSYQEIEDDSDVEWKFARSKLWLSYFDDGKTLPPPFSLVPSPKSFVYFIMRITNFSKCRRRRLQKDLELGMGNSKSRLNLFTQSNSRVFESHSFNSILNQPTRYQQIMKRLIKRYVLKAQVDKENDEVNEGELKEIKQDISSLRYELLEDKSQATEELAILIHKLSEKLNPSALRCE
binding [1]: binds
binding [3]: binds
